Source: PMC6790244
No constants are given. Whether binding was seen depends on the method and setting. In cells and extracts the contact can be indirect. Some entries that bind do so weakly or less than the wild type.

The chains behind the UniProt entries cited, without tags or fusion partners.
UniProt Q5SVZ6: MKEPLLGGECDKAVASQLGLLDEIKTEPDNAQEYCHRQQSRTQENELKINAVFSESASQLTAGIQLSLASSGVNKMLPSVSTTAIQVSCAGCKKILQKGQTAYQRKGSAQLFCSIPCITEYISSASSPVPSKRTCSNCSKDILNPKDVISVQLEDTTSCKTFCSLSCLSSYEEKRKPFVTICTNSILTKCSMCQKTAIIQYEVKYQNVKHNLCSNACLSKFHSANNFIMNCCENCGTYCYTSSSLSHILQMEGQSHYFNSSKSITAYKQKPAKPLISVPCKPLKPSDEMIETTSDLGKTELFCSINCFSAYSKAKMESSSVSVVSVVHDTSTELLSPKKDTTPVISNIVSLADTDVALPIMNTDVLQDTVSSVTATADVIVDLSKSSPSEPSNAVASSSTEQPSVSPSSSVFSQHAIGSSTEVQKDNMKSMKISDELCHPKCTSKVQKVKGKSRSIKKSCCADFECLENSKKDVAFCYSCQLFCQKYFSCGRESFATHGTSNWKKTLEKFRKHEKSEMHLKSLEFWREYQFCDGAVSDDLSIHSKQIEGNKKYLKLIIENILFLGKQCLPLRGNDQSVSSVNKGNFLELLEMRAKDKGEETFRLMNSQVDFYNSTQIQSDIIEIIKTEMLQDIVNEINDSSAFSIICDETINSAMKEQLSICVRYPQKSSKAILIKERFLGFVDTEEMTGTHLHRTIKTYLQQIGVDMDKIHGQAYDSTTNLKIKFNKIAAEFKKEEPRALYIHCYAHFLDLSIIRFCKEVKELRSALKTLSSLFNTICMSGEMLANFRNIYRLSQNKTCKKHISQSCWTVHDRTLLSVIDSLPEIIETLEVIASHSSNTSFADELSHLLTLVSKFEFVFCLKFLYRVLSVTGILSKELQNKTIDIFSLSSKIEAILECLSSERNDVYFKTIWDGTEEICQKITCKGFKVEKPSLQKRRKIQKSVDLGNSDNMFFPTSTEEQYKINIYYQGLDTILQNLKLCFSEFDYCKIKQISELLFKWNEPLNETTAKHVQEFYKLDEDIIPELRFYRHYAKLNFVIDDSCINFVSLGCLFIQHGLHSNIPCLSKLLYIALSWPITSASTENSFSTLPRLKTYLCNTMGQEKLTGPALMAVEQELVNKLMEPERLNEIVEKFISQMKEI
UniProt Q9UKL0: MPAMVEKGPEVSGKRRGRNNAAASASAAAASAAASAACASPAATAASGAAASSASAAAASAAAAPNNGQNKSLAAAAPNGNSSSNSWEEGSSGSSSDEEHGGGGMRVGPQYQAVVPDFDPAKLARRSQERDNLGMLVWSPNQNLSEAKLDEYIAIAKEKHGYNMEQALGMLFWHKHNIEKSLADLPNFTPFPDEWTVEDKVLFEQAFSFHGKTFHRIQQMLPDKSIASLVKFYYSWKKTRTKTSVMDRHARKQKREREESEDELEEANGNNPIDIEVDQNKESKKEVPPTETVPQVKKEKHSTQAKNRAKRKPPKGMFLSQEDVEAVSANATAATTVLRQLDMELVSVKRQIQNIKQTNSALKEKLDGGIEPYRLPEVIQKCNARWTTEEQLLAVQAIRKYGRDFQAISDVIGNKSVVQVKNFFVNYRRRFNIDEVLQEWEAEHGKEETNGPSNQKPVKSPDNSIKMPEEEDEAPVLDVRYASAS

Assays:
[1] = target: zinc finger MYM-type containing 1 (ZMYM1) (human (endogenous in BGC823 and MKN-28)) (UniProt Q5SVZ6); assay: co-IP; whole-cell lysates of GC cells (BGC823, MKN-28); IP with antibodies against ZMYM1 or, reciprocally, against CtBP1/2, LSD1 or CoREST, then immunoblot; lysis buffer 50 mM Tris-HCl pH 7.5, 150 mM NaCl, 15 mM MgCl2, 5 mM EDTA, 0.1% NP-40; antibody 2 h and protein A/G agarose overnight at 4 °C
[2] = target: CoREST (human (endogenous in BGC823 and MKN-28)) (UniProt Q9UKL0); assay: as above

| binding [1] | binding [2] | Substance |
| --- | --- | --- |
| binds | – | CoREST (from UniProt Q9UKL0 1-485) |
| – | binds | zinc finger MYM-type containing 1 (ZMYM1) (from UniProt Q5SVZ6 1-1142) |
